Experimental findings from PMC2246272 are described below.

The assay deals with T1, Suv39h1 (Suppressor of variegation 39h1), HA-FLAG-tagged (human) (UniProt O43463).
T1 sequence: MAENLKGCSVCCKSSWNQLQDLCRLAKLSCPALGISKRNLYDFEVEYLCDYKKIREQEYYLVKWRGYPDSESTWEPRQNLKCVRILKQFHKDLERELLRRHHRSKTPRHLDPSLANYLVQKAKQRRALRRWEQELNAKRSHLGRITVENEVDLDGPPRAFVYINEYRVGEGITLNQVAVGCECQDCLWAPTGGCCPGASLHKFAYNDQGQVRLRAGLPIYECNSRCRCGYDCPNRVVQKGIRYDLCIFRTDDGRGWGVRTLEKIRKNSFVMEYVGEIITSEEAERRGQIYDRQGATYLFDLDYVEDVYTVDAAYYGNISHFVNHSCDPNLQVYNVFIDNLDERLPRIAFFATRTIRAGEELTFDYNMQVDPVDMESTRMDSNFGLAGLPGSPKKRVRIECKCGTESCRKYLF
Description: affinity purification with mass spectrometry; double immunopurification (anti-FLAG agarose, FLAG peptide elution, then anti-HA agarose, HA peptide elution) of HA-FLAG-Suv39h1 or HA-FLAG-G9a from micrococcal nuclease-digested HeLa nuclei (primarily mononucleosomes); eluate resolved on NuPAGE gel, histone bands propionylated, trypsin-digested and read by ESI ion-trap MS/MS; other bands identified by mass spectrometry; control: cell line with empty vector.

These are yes or no findings as the source states them, for the method shown. In cells and extracts the contact can be indirect. A yes stands for co-enrichment or nearness to the bait. Other partners may have been found. Sequences can lack the tags named with a protein.

On to macro-H2A (human (endogenous in HeLa)), for which the binding result is given as “binds”.
